According to patent US6762284:
No constants are given. Whether binding was seen depends on the method and setting. Some results given as binding are weak or reduced against the parent protein; the word gives no strength.

By UniProt entry, the sequences of proteins in these tests, tags left out. Where a name states a change or a piece, a line headed by the entry shows the natural chain unless it says otherwise.
UniProt P04386: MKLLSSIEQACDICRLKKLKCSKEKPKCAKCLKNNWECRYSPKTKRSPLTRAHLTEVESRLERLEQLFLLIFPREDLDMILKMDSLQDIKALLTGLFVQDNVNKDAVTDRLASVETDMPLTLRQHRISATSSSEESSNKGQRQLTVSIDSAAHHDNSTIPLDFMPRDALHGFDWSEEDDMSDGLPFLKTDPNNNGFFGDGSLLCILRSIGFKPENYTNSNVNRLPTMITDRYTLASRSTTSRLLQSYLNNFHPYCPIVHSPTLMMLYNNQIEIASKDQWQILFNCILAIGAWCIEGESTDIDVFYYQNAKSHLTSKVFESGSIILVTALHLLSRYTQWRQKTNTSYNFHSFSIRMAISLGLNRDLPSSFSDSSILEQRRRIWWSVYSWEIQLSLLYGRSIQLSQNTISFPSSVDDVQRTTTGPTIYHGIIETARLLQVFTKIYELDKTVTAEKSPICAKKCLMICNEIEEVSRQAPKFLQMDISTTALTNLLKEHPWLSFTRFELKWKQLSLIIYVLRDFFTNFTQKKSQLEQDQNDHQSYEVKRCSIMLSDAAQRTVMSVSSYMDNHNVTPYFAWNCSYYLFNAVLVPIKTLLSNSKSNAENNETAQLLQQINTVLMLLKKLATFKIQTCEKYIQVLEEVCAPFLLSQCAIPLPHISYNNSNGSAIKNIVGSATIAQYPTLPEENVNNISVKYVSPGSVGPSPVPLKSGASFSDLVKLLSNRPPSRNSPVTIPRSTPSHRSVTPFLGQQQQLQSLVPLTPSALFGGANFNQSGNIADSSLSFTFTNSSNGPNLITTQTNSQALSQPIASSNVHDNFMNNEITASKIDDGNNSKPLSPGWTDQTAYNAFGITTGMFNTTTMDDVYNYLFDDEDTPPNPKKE
UniProt P27986: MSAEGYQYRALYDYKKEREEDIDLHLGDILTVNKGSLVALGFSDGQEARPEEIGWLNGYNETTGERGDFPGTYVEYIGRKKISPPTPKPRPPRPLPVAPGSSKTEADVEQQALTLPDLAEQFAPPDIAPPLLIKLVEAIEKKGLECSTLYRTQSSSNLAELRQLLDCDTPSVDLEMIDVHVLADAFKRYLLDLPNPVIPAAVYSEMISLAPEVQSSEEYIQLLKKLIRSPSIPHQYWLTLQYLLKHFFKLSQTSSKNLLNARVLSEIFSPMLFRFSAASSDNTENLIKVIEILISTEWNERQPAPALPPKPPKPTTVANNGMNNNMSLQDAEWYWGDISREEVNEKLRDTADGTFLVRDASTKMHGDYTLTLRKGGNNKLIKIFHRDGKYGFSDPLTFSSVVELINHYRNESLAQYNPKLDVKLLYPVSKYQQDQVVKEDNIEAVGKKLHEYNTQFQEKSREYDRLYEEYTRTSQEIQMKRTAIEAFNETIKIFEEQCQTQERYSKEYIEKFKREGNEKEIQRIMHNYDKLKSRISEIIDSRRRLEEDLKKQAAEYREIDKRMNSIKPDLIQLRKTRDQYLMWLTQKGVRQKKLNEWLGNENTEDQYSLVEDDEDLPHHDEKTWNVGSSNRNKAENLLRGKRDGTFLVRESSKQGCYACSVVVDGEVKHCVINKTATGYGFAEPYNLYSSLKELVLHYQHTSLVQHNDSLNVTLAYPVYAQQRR

Experiments:
Test in all cases: yeast two-hybrid
[1] = target: p85 N-terminal SH2 and inter SH2 domain (AA 263-620) (human) (UniProt P04386+P27986)
[2] = target: p85 full length (AA 6-727) (human) (UniProt P04386+P27986)
[3] = target: p85 SH2 domains and inter SH2 domain (AA 263-727) (human) (UniProt P04386+P27986)

Measured: binding

B1: PIKAP AA 277-589 (protein, not shown: large carriers)
chain: EDSGDAEAHAFKSPSKENKKKDKDMLEDKFKSNNLEREQEQLDRIVKESGGKLTRRLVNSQCEFERRKPDGTTTLGLLHPVDPIVGEPGYCLVRLGMTTGRLQSGVNTLQGFKEDKRNKVTPVLYLNYGPYSSYAPHYDSTFANISKDDSDLIYSTYGEDSDLPSDFSIHEFLATCQDYPYVMADSLLDVLTKGGHSRTLQEMEMSLPEDEGHTRTLDTGKEMEQITEVEPPGRLDSSTQDRLIALKAVTNFGVPVEVFDSEEAEIFQKKLDETTRLLRELQEAQNERLSTRPPGNMICLLGPSSEKCILLNK
binds: all assays above
